Data as given in PubChem BioAssay AID1159578 (Peter MacCallum Cancer Centre, 2015)
This is one part, drawn at random, of about 18,000 reagents tested. Of all reagents, about 1,030 (5.7%) were called active. 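Inactive calls also include pools with fewer than 3300 nuclei, whose migration was not assessed.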 The raw values are shown without normalisation. Entries without a mark were called inactive. Not all columns of the deposit are shown.

- Assay: 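siRNA pools altering how lymphatic endothelial cells close a scratch wound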 (primary screen)
- Cell system: human lymphatic endothelial cells
- Knock-down reagent: siRNA pool against human genes, 40 nM
- Timing: 48 h after transfection
- Detection: 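High-content imaging of dye-stained cells in a scratch assay measures filled wound area and nuclei per well; duplicate means given as ratio to mock and robust z-score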
- Direction: migration robust z-score: higher = faster migration into the scratch; nuclei per well: higher = more cells in the well
- Call rule: 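Pools averaging fewer than 3300 nuclei are never called; remaining pools count as changed when migration robust z lies outside -2 to 2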
- Calls: active = migration changed; inactive = no migration change, or too few cells

With knock-down of EPS8L1, the screen gave migration robust z-score 0.17; migration class with cell-count check migration z between -2 and 2; enough cells; nuclei per well, duplicate mean 5838.
Silencing of DPH7 gave: migration robust z-score -1.81; migration class with cell-count check migration z between -2 and 2; enough cells; nuclei per well, duplicate mean 6034.
NPY1R showed migration robust z-score 0.31; migration class with cell-count check migration z between -2 and 2; enough cells; nuclei per well, duplicate mean 6201.
Knock-down of KLK2 came out at: migration robust z-score 0.39; migration class with cell-count check migration z between -2 and 2; enough cells; nuclei per well, duplicate mean 4726.

Part of the list above, reduced to “nuclei per well, duplicate mean”:
NPY1R: 6201
KLK2: 4726

The results go on.
Silencing of SLC25A48 came out at: migration robust z-score -0.5; migration class with cell-count check migration z between -2 and 2; enough cells; nuclei per well, duplicate mean 5724.
DDX5 showed migration robust z-score -0.39; migration class with cell-count check migration z between -2 and 2; enough cells; nuclei per well, duplicate mean 4815.
With knock-down of ZNF497, the record shows migration robust z-score -1.35; migration class with cell-count check migration z between -2 and 2; enough cells; nuclei per well, duplicate mean 4454.
With knock-down of NDUFS7, the record shows migration robust z-score 0.39; migration class with cell-count check migration z between -2 and 2; enough cells; nuclei per well, duplicate mean 7186.
Silencing of MED22 gave: migration robust z-score -0.84; migration class with cell-count check migration z between -2 and 2; enough cells; nuclei per well, duplicate mean 4686.
With knock-down of DDX23, the record shows migration robust z-score 0.68; migration class with cell-count check migration z between -2 and 2; enough cells; nuclei per well, duplicate mean 5204.
RPL9 scored migration robust z-score -1.86; migration class with cell-count check migration z between -2 and 2; enough cells; nuclei per well, duplicate mean 4146.
ZNF407 gave migration robust z-score -0.5; migration class with cell-count check migration z between -2 and 2; enough cells; nuclei per well, duplicate mean 4552.
RCC1L gave migration robust z-score 0.04; migration class with cell-count check migration z between -2 and 2; enough cells; nuclei per well, duplicate mean 5352.
P2RY2 showed migration robust z-score -1.17; migration class with cell-count check migration z between -2 and 2; enough cells; nuclei per well, duplicate mean 5212.
